These are yes or no findings as the source states them, for the method shown. Some results given as binding are weak or reduced against the parent protein; the word gives no strength. For some assays here: Tags and fused reporters may be left off the sequences shown.

Assay [1] concerns the target T1, FLG2Nter (aa 2-213) (LexA bait) (human) (UniProt Q5D862).
T1 sequence: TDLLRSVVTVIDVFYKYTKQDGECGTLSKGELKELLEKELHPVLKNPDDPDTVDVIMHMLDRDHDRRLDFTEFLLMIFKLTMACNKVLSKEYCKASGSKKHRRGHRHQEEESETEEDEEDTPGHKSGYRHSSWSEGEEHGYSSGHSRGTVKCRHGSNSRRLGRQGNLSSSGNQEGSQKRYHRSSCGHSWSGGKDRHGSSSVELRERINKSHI
The experiment in a line: two-hybrid; LexA baits in pB27 screened by mating (Y187 x L40dGal4) against a random primed human reconstructed epidermis (Episkin day 13) library in pP6; selection on medium without Trp, Leu, His; 5 mM 3-aminotriazole for FLG2Nter (aa 2-213), 20 mM for FLG2S100 (aa 2-95).

Assay [2] concerns the target T2, FLG2S100 (aa 2-95) (LexA bait) (human) (UniProt Q5D862).
T2 sequence: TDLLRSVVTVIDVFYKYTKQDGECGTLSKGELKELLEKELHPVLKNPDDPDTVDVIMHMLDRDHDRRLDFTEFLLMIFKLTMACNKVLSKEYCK
The assay is described as above.

For assay [3], the target named is T3, GST-Flag-SASPase 28 kDa recombinant protein (human) (UniProt Q53RT3).
T3 sequence: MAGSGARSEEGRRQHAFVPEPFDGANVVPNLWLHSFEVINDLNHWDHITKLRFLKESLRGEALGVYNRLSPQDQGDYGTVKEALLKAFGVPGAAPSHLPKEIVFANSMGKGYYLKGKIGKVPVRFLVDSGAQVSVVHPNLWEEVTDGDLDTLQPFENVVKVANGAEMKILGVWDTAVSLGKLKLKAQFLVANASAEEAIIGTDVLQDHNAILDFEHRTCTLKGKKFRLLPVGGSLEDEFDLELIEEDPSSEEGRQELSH
The experiment in a line: SPR; Biacore T200, 25°C, HBS-EP+; goat anti-GST on CM5 captures GST-Flag-SASPase 28 (1 μM, flow cell 2) and GST (flow cell 1); MBP-HA S100 domains and MBP-HA injected at 3 and 6 μM; both purified. (In general: Surface plasmon resonance follows binding to a sensor surface in real time, without labels.)

For assay [4], the target named is T4, full length wild type SASPase 28 (LexA bait) (human) (UniProt Q53RT3).
T4 sequence: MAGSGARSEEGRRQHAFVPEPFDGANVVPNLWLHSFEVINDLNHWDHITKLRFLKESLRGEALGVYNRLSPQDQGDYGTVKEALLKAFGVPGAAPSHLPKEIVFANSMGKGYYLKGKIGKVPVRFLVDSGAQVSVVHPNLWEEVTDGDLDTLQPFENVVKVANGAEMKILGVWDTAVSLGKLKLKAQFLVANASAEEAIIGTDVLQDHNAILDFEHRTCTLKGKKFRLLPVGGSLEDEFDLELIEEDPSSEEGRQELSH
The experiment in a line: two-hybrid; LexA baits in pB27 screened by mating (Y187 x L40dGal4) against a random primed human reconstructed epidermis (Episkin day 13) library in pP6; selection on medium without Trp, Leu, His; 5 mM 3-aminotriazole for FLG2Nter (aa 2-213), 20 mM for FLG2S100 (aa 2-95).

B1: SASPase prey fragments from the human reconstructed skin library (domain or fragment, UniProt Q53RT3 97-169)
chain: RQHAFVPEPFDGANVVPNLWLHSFEVINDLNHWDHITKLRFLKESLRGEALGVYNRLSPQDQGDYGTVKEALL
For the molecule B1, the binding result in assay [1] and in assay [2] was “binds” in each case.

B2: MBP-HA FLG S100 (aa 2-95) (domain or fragment, UniProt P20930 2-95)
chain: STLLENIFAIINLFKQYSKKDKNTDTLSKKELKELLEKEFRQILKNPDDPDMVDVFMDHLDIDHNKKIDFTEFLLMVFKLAQAYYESTRKENLP
In the case of B2, the binding entry in assay [3] was “no binding (tested: 6 μM)”.

B3: filaggrin 2 prey fragments from the human reconstructed skin library (domain or fragment, UniProt Q5D862 2-213)
chain: TDLLRSVVTVIDVFYKYTKQDGECGTLSKGELKELLEKELHPVLKNPDDPDTVDVIMHMLDRDHDRRLDFTEFLLMIFKLTMACNKVLSKEYCKASGSKKHRRGHRHQEEESETEEDEEDTPGHKSGYRHSSWSEGEEHGYSSGHSRGTVKCRHGSNSRRLGRQGNLSSSGNQEGSQKRYHRSSCGHSWSGGKDRHGSSSVELRERINKSHI
Turning to B3, in assay [4], the binding entry is “binds”.

B4: MBP-HA TCHH S100 (aa 2-95) (domain or fragment, UniProt Q07283 2-95)
chain: SPLLRSICDITEIFNQYVSHDCDGAALTKKDLKNLLEREFGAVLRRPHDPKTVDLILELLDLDSNGRVDFNEFLLFIFKVAQACYYALGQATGL
Turning to B4, the binding entry in assay [3] was “no binding (tested: 6 μM)”.

The record behind these values is PMC7241785.
